This continues a long series; more values of the same kind are listed elsewhere.
Key:
Type in all cases: cell-based
Details in all cases: U-87MG ATCC
[1] = Inhibition of RTK/PI3K/AKT/mTOR signaling in human U87 cells assessed as down regulation of CEP85 gene expression at cytotoxic IC50 measured after 48 hrs relative to control
[2] = Inhibition of RTK/PI3K/AKT/mTOR signaling in human U87 cells assessed as down regulation of ATF7IP2 gene expression at cytotoxic IC50 measured after 48 hrs relative to control
[3] = Inhibition of RTK/PI3K/AKT/mTOR signaling in human U87 cells assessed as up regulation of DNA damage regulated autophagy modulator 1 gene expression at cytotoxic IC50 measured after 48 hrs relative to control
[4] = Inhibition of RTK/PI3K/AKT/mTOR signaling in human U87 cells assessed as up regulation of CAP-Gly domain containing linker protein family member 4 gene expression at cytotoxic IC50 measured after 48 hrs relative to control
[5] = Inhibition of RTK/PI3K/AKT/mTOR signaling in human U87 cells assessed as down regulation of SLC25A19 gene expression at cytotoxic IC50 measured after 48 hrs relative to control
[6] = Inhibition of RTK/PI3K/AKT/mTOR signaling in human U87 cells assessed as up regulation of transmembrane protein 241 gene expression at cytotoxic IC50 measured after 48 hrs relative to control
[7] = Inhibition of RTK/PI3K/AKT/mTOR signaling in human U87 cells assessed as up regulation of tRNA isopentenyltransferase 1 gene expression at cytotoxic IC50 measured after 48 hrs relative to control
[8] = Inhibition of RTK/PI3K/AKT/mTOR signaling in human U87 cells assessed as up regulation of BAIAP2 antisense RNA 1 (head to head) gene expression at cytotoxic IC50 measured after 48 hrs relative to control
[9] = Inhibition of RTK/PI3K/AKT/mTOR signaling in human U87 cells assessed as up regulation of GJB2 gene expression at cytotoxic IC50 measured after 48 hrs relative to control
[10] = Inhibition of RTK/PI3K/AKT/mTOR signaling in human U87 cells assessed as down regulation of ARL8B gene expression at cytotoxic IC50 measured after 48 hrs relative to control
[11] = Inhibition of RTK/PI3K/AKT/mTOR signaling in human U87 cells assessed as up regulation of MISP gene expression at cytotoxic IC50 measured after 48 hrs relative to control
[12] = Inhibition of RTK/PI3K/AKT/mTOR signaling in human U87 cells assessed as up regulation of cAMP responsive element binding protein 5 gene expression at cytotoxic IC50 measured after 48 hrs relative to control
[13] = Inhibition of RTK/PI3K/AKT/mTOR signaling in human U87 cells assessed as up regulation of TSPAN1 gene expression at cytotoxic IC50 measured after 48 hrs relative to control
[14] = Inhibition of RTK/PI3K/AKT/mTOR signaling in human U87 cells assessed as down regulation of NUP107 gene expression at cytotoxic IC50 measured after 48 hrs relative to control
[15] = Inhibition of RTK/PI3K/AKT/mTOR signaling in human U87 cells assessed as down regulation of KHNYN gene expression at cytotoxic IC50 measured after 48 hrs relative to control
[16] = Inhibition of RTK/PI3K/AKT/mTOR signaling in human U87 cells assessed as up regulation of THAP domain containing 11 gene expression at cytotoxic IC50 measured after 48 hrs relative to control
[17] = Inhibition of RTK/PI3K/AKT/mTOR signaling in human U87 cells assessed as up regulation of synaptotagmin like 3 gene expression at cytotoxic IC50 measured after 48 hrs relative to control
[18] = Inhibition of RTK/PI3K/AKT/mTOR signaling in human U87 cells assessed as up regulation of SEMA6B gene expression at cytotoxic IC50 measured after 48 hrs relative to control
[19] = Inhibition of RTK/PI3K/AKT/mTOR signaling in human U87 cells assessed as down regulation of ZNF197 gene expression at cytotoxic IC50 measured after 48 hrs relative to control
[20] = Inhibition of RTK/PI3K/AKT/mTOR signaling in human U87 cells assessed as down regulation of STPG1 gene expression at cytotoxic IC50 measured after 48 hrs relative to control
[21] = Inhibition of RTK/PI3K/AKT/mTOR signaling in human U87 cells assessed as up regulation of insulin receptor gene expression at cytotoxic IC50 measured after 48 hrs relative to control
[22] = Inhibition of RTK/PI3K/AKT/mTOR signaling in human U87 cells assessed as up regulation of CTD small phosphatase 1 gene expression at cytotoxic IC50 measured after 48 hrs relative to control
[23] = Inhibition of RTK/PI3K/AKT/mTOR signaling in human U87 cells assessed as down regulation of CHUK gene expression at cytotoxic IC50 measured after 48 hrs relative to control
[24] = Inhibition of RTK/PI3K/AKT/mTOR signaling in human U87 cells assessed as up regulation of NEBL gene expression at cytotoxic IC50 measured after 48 hrs relative to control
[25] = Inhibition of RTK/PI3K/AKT/mTOR signaling in human U87 cells assessed as up regulation of early B-cell factor 4 gene expression at cytotoxic IC50 measured after 48 hrs relative to control
[26] = Inhibition of RTK/PI3K/AKT/mTOR signaling in human U87 cells assessed as up regulation of ubiquitin specific peptidase 3 gene expression at cytotoxic IC50 measured after 48 hrs relative to control
[27] = Inhibition of RTK/PI3K/AKT/mTOR signaling in human U87 cells assessed as down regulation of YWHAG gene expression at cytotoxic IC50 measured after 48 hrs relative to control
[28] = Inhibition of RTK/PI3K/AKT/mTOR signaling in human U87 cells assessed as up regulation of thymosin beta 10 gene expression at cytotoxic IC50 measured after 48 hrs relative to control
[29] = Inhibition of RTK/PI3K/AKT/mTOR signaling in human U87 cells assessed as up regulation of RSL24D1 gene expression at cytotoxic IC50 measured after 48 hrs relative to control
[30] = Inhibition of RTK/PI3K/AKT/mTOR signaling in human U87 cells assessed as up regulation of signal sequence receptor subunit 1 gene expression at cytotoxic IC50 measured after 48 hrs relative to control
[31] = Inhibition of RTK/PI3K/AKT/mTOR signaling in human U87 cells assessed as down regulation of TRIM9 gene expression at cytotoxic IC50 measured after 48 hrs relative to control
[32] = Inhibition of RTK/PI3K/AKT/mTOR signaling in human U87 cells assessed as down regulation of CMTR2 gene expression at cytotoxic IC50 measured after 48 hrs relative to control

CC(=O)C(=NNc1ccccc1C#N)C(C)=O
log2FC [1]: -0.503 | log2FC [2]: -1.9 | log2FC [3]: 0.932 | log2FC [4]: 0.843 | log2FC [5]: -1.62 | log2FC [6]: 1.35 | log2FC [7]: 0.792 | log2FC [8]: 0.92 | log2FC [9]: 1.66 | log2FC [10]: -0.572 | log2FC [11]: 2.1 | log2FC [12]: 1.05 | log2FC [13]: 1.85 | log2FC [14]: -0.605 | log2FC [15]: -0.932 | log2FC [16]: 1 | log2FC [17]: 1.54 | log2FC [18]: 1.6 | log2FC [19]: -0.928 | log2FC [20]: -0.945 | log2FC [21]: 0.735 | log2FC [22]: 1.25 | log2FC [23]: -1.1 | log2FC [24]: 0.646 | log2FC [25]: 1.44 | log2FC [26]: 0.679 | log2FC [27]: -0.413 | log2FC [28]: 1.12 | log2FC [29]: 0.393 | log2FC [30]: 0.738 | log2FC [31]: -1.34 | log2FC [32]: -0.821

Reference: ChEMBL document CHEMBL4316593 (Eur J Med Chem, 2019)
